No constants are given. Whether binding was seen depends on the method and setting. Some entries that bind do so weakly or less than the wild type.
Tests used:
GST-Bcl-2 (human) [1] = molecular target: GST-Bcl-2 (human) (UniProt P10415); experiment: SPR, GST-Bcl-2 over immobilized activator peptide
GST-Bcl-2 (human) [2] = molecular target: GST-Bcl-2 (human) (UniProt P10415); experiment: SPR, 800 nM GST-Bcl-2 over immobilized activator peptide

Protein sequences, listed by entry. Tags and fused reporters are not part of them. Residues count along the entry.
UniProt P10415, residues 1-218: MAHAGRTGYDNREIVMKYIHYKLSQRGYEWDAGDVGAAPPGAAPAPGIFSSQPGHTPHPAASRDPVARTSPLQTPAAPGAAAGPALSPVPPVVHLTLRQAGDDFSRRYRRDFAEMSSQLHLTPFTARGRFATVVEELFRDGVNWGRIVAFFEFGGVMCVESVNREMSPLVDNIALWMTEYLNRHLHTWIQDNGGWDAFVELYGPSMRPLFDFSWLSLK

## DMNLLDIFIEMEKRVILGEGKLDILKRVCAQ [Casp8p41 activator peptide]
GST-Bcl-2 (human) [1]
  binding: binds
GST-Bcl-2 (human) [2]
  binding: binds
